The other results are listed elsewhere or left out.

Protein sequences, listed by entry. Tags and fused reporters are not part of them.
UniProt Q0JBA9, entry or part of it: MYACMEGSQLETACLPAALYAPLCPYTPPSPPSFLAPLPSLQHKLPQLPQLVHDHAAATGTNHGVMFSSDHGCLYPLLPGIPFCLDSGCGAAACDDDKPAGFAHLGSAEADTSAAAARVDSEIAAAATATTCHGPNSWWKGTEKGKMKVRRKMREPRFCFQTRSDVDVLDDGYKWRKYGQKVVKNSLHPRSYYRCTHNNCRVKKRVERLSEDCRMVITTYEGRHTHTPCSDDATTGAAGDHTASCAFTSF

This assay concerns the target OsWRKY34 (Oryza sativa, UniProt Q0JBA9 1-250). Nature of the assay: protein-binding microarray (RPBM); PBS, 2% BSA, 51.3 ng/ul salmon testes DNA, 50 uM zinc acetate, 200 nM TF, 25 C, 1 h; high values mean tight binding. The settings on record: protein: recombinant; tags: N-terminal polyhistidine and DsRed monomer fusion (pET32a); label: CyDye5-dUTP incorporated in the synthesized complementary strand; 3' TTTTT single-stranded linker to array surface; dsDNA, one strand shown. Put shortly:
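In PBS with 2% BSA, salmon testes DNA and 50 µM zinc acetate, 200 nM protein was incubated on a custom Agilent array at 25 °C for 1 h and then washed off. The array had been made double-stranded by primer extension with Cy5-dUTP and blocked with 2% BSA. The proteins were transcription factors fused N-terminally to polyhistidine and DsRed, expressed in E. coli BL21-CodonPlus and purified on Ni–NTA. The binding signal is per-feature fluorescence intensity (arbitrary units) from an Axon 4000B scanner.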
With “AACTCCAAATGTACAAAGCACCCATGATCCAGCCAGTCCACGGAGTCACCTAGTGCAG”, the binding signal was 8540 fluorescence intensity (a.u.).

Turning to “TGTGATTTTTCTCGGGTCGCTACTGTTCATTGCGCGCCAGCGGAGTCACCTAGTGCAG”, the binding signal was 12000 fluorescence intensity (a.u.).

“AGATCTCTACCCACGATCTTTGTGATTTCCTTGTGAGATTCGGAGTCACCTAGTGCAG”: the binding signal is 10700 fluorescence intensity (a.u.).

For “TACGTGTCTCCAGCGCCGTGGGGTGGGAGTGGGATACAGTCGGAGTCACCTAGTGCAG”, the binding signal was 11000 fluorescence intensity (a.u.).

For “GACCTATTTTCGCGATTTTCCCCGGTTGACCACTACTTTTCGGAGTCACCTAGTGCAG”, the binding signal was 13100 fluorescence intensity (a.u.).

Take “AAAGGCACGAACCTCTTTTTCTCGTCGTCCATGGCGATAGCGGAGTCACCTAGTGCAG”: the binding signal was 8480 fluorescence intensity (a.u.).

As for “CCCACCTCCACTACTCCATTTACTTTGCTACTCCCTTCTCCGGAGTCACCTAGTGCAG”, the binding signal was 8840 fluorescence intensity (a.u.).

With “ATTTCTTACGTTGTTGCAGCTTTGTTTTTTTTGCTTATTTCGGAGTCACCTAGTGCAG”, the binding signal is 14900 fluorescence intensity (a.u.).

With “CCAACAAGTTGACCTTGACCACATGCCTGCGCCTTTGACCCGGAGTCACCTAGTGCAG”, the binding signal was 11000 fluorescence intensity (a.u.).

Turning to “TCTCCCTCAGTTACTGCCTTGCTCCCCAACCCCAGGAGCACGGAGTCACCTAGTGCAG”, the binding signal is 9230 fluorescence intensity (a.u.).

Consider “TTTGTTTTCTACTTAATTGACCATACTCCAGTCCTACTCCCGGAGTCACCTAGTGCAG”, for which the binding signal is 8730 fluorescence intensity (a.u.).

On to “TGTTTCTTCTCCTCCTACTACTACTACTACTACTTCACATCGGAGTCACCTAGTGCAG”, for which the binding signal is 8920 fluorescence intensity (a.u.).

With “CATGGTTCATTATGCAACTTGGGTAATAGTTCCTTCTTTTCGGAGTCACCTAGTGCAG”, the binding signal was 8200 fluorescence intensity (a.u.).

“TCCTTGCTCCATCAGTATTACACCACCCAACACAAGCTCACGGAGTCACCTAGTGCAG”: the binding signal was 8870 fluorescence intensity (a.u.).

Consider “TTGTCTTTTGTTCTCAGAGCTCCATTGGTTGACTTAATAACGGAGTCACCTAGTGCAG”, for which the binding signal is 10500 fluorescence intensity (a.u.).

For the sequence “AAAGCAATCATTCCCCTGTTTTGCTGCCAATTGCAGCTTTCGGAGTCACCTAGTGCAG”, the binding signal is 8900 fluorescence intensity (a.u.).

Consider “GCATCGCATCGCATCCCCAAATCTCGTTTCCGTCCAAGTCCGGAGTCACCTAGTGCAG”, for which the binding signal was 8520 fluorescence intensity (a.u.).

Regarding “GGCGAAGGCATGTTCCCAAGTTATACTCACTTGTTTTTCACGGAGTCACCTAGTGCAG”, the binding signal is 9130 fluorescence intensity (a.u.).

In the case of “AGTCACACTCCGGCCCGCACTTACGTCATAATCCCGTTCCCGGAGTCACCTAGTGCAG”, the binding signal was 13400 fluorescence intensity (a.u.).

Consider “GATCGTGAGTCGTGACACTACTAATTCCATATTACCTCACCGGAGTCACCTAGTGCAG”, for which the binding signal is 8170 fluorescence intensity (a.u.).

As to “CACGTCGTACCCACTCGTCCTCGGCTCCTCGCGCGGTCACCGGAGTCACCTAGTGCAG”, the binding signal was 11300 fluorescence intensity (a.u.).

On to “TGGAGCCACACGTCGGTCAGTTCGTCACCCACACGCTACACGGAGTCACCTAGTGCAG”, for which the binding signal is 8240 fluorescence intensity (a.u.).

Consider “AATTGAAACCTAATCGCATATTTGCATTGCATTTTTTCTGCGGAGTCACCTAGTGCAG”, for which the binding signal is 8740 fluorescence intensity (a.u.).

For the sequence “TCACCTTTATCGATCTAAAAAAGCTGTGTTTATTTTTACACGGAGTCACCTAGTGCAG”, the binding signal is 8340 fluorescence intensity (a.u.).

On to “CCGCCGCCTCACTCTCCGTCTCCGACGCCGCCGCTAAGCTCGGAGTCACCTAGTGCAG”, for which the binding signal was 8520 fluorescence intensity (a.u.).

As to “CCGTTTTTAATATATGACACCGTTAATTTTTTTCACGTTTCGGAGTCACCTAGTGCAG”, the binding signal is 8930 fluorescence intensity (a.u.).

As to “GATTATCTCTTCTTCACCTGCAATGCTAATACCTTCCACTCGGAGTCACCTAGTGCAG”, the binding signal was 8770 fluorescence intensity (a.u.).

Turning to “TATGTTTGTTATGTTGTGTGCCATCGAGCAGATGATAAATCGGAGTCACCTAGTGCAG”, the binding signal is 8300 fluorescence intensity (a.u.).

As to “GGACAAGTAAATTGTATGTCAGCCACACTTGCTTATGTGACGGAGTCACCTAGTGCAG”, the binding signal was 8680 fluorescence intensity (a.u.).

“TCATCCCAGCATTGTTGTTTGCCTGAATTAGTTGTAGAAACGGAGTCACCTAGTGCAG”: the binding signal was 8630 fluorescence intensity (a.u.).

As for “TCCTCCCTCCCCTCCACCTCGCCGCCGCCGCCGCCGCCGCCGGAGTCACCTAGTGCAG”, the binding signal was 8760 fluorescence intensity (a.u.).

In the case of “CTTGCTCATCTACCATTTGCCTCTTCAGCAACAGCTTAGACGGAGTCACCTAGTGCAG”, the binding signal is 12600 fluorescence intensity (a.u.).

Turning to “GTTAGTCCCTAGTTCCCAAATACCCCTTAGTCGAGCAGTTCGGAGTCACCTAGTGCAG”, the binding signal was 8340 fluorescence intensity (a.u.).

As to “TATTCCTCGCTTAAATTGTGGGGTGGTATTATTATCCTTACGGAGTCACCTAGTGCAG”, the binding signal was 12600 fluorescence intensity (a.u.).

Take “TTCTCTTCCTCGTTTTTGTTCAGGGTCATCACTTGCTGTCCGGAGTCACCTAGTGCAG”: the binding signal was 9040 fluorescence intensity (a.u.).

Consider “GGAGCTCATCACTGGCCAGCTGCCGCCGCCGCCGCCACCACGGAGTCACCTAGTGCAG”, for which the binding signal is 8240 fluorescence intensity (a.u.).

Consider “TGGACATATCCCATCCATGCATGACCGTGAACCAAACACACGGAGTCACCTAGTGCAG”, for which the binding signal was 8100 fluorescence intensity (a.u.).

Regarding “GTCCACAACTATACAACCCACAAGCGTGGCGCTGCGCCACCGGAGTCACCTAGTGCAG”, the binding signal was 8360 fluorescence intensity (a.u.).

For the sequence “AACTGAAACTCTGAACTTGACATCCATATGCGACTAATTCCGGAGTCACCTAGTGCAG”, the binding signal is 8520 fluorescence intensity (a.u.).

On to “GAGGACGCTTCGATCGACTCATCATCGTATTCTTGTAGTACGGAGTCACCTAGTGCAG”, for which the binding signal was 8040 fluorescence intensity (a.u.).

With “TTCTTTTGCCGTGCTCCCAGATTCTCCGGTCGCCACGACTCGGAGTCACCTAGTGCAG”, the binding signal is 8590 fluorescence intensity (a.u.).

With “TTACTACTTCACCGTCTCTTTTTCTTCCTCAGCGCACAAACGGAGTCACCTAGTGCAG”, the binding signal is 9610 fluorescence intensity (a.u.).

Values taken from paper PMC7819943, “Rice protein-binding microarrays: a tool to detect cis-acting elements near promoter regions in rice”.
